PubChem BioAssay AID1053208 – Peter MacCallum Cancer Centre, 2014

- Purpose: 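Synthetic lethal interactions between gene loss and doxorubicin in osteosarcoma cells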 (primary screen)
- System: mouse osteosarcoma cells, early-passage culture from an engineered mouse model of fibroblastic bone tumour
- Knock-down reagent: siRNA pool against mouse genes, 40 nM
- Timing: about 120 h (48 h before drug, then 72 h with drug)
- Challenge: doxorubicin 100 nM for 72 h, roughly 30-40% inhibitory dose
- Measured: 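Luminescent ATP signal taken as viability with or without 100 nM doxorubicin for 72 h; mean of two wells set against non-targeting siRNA and turned into robust z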
- Scale: viability z-score with doxorubicin: higher = more viable cells under doxorubicin; viability z-score without drug: higher = more viable cells with knock-down alone; z-score of drug to no-drug ratio: higher = less drug sensitisation by knock-down
- Rule for the call: 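a pool counts as active when its viability z-score with doxorubicin is -2 or below and its z-score without drug lies between -2 and 2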
This is a random part of about 17,000 reagents tested. 788 of them (4.7%) were called active. 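Calls rest on z-score classes alone; an extra cut-off of viability at most 70% of control was not applied to them.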 Reagents against one gene are numbered here. Further read-outs or replicates are left out here.

| gene | pool no. | combined z-score class | viability z-score with doxorubicin | viability z-score without drug | z-score of drug to no-drug ratio | Outcome |
| --- | --- | --- | --- | --- | --- | --- |
| Slc12a1 | 1 | no change with or without drug | -1.35 | 0.84 | -1.8 | inactive |
| Ly6a (lymphocyte antigen 6 family member A) | 1 | no change with or without drug | 0.67 | -0.51 | 1.24 | inactive |
| Lck (lck proto-oncogene, Src family tyrosine kinase) | 1 | no change with or without drug | 0 | -0.51 | 0.45 | inactive |
| Tmem67 (transmembrane protein 67) | 1 | no change with or without drug | 0.56 | 1.18 | -0.11 | inactive |
| Kcnh3 | 1 | no change with or without drug | 0.67 | 0.84 | 0.22 | inactive |
| Eml3 (echinoderm microtubule associated protein like 3) | 1 | no change with or without drug | 0.11 | -0.84 | 0.9 | inactive |
| Fcgrt (Fc fragment of IgG receptor and transporter) | 1 | no change with or without drug | -0.22 | 0.67 | -0.56 | inactive |
| Tial1 (Tia1 cytotoxic granule-associated RNA binding protein-like 1) | 1 | no change with or without drug | -0.79 | 0.84 | -1.24 | inactive |
| Grid1 (glutamate receptor, ionotropic, delta 1) | 1 | no change with or without drug | 0.56 | -1.01 | 1.46 | inactive |
| Trim47 (tripartite motif-containing 47) | 1 | no change with or without drug | 0.9 | -1.52 | 2.36 | inactive |
| Tspan33 (tetraspanin 33) | 1 | no change with or without drug | 0.9 | -1.18 | 2.02 | inactive |
| Gmfb (glia maturation factor, beta) | 1 | no change with or without drug | 0.22 | -0.51 | 0.67 | inactive |
| Prh1 (proline rich protein HaeIII subfamily 1) | 1 | no change with or without drug | 0.22 | -0.17 | 0.45 | inactive |
| Bag5 (BCL2-associated athanogene 5) | 1 | no change with or without drug | 1.35 | 1.85 | 0.22 | inactive |
| Khdc1a (KH domain containing 1A) | 1 | no change with or without drug | 0.22 | 0.51 | 0 | inactive |
| Klf7 (Kruppel-like transcription factor 7 (ubiquitous)) | 1 | no change with or without drug | 0.79 | 0.84 | 0.34 | inactive |
| Ank (progressive ankylosis) | 1 | no change with or without drug | 0 | -1.85 | 1.57 | inactive |
| Stxbp2 (syntaxin binding protein 2) | 1 | no change with or without drug | 0.79 | 0.34 | 0.67 | inactive |
| Tesk2 (testis-specific kinase 2) | 1 | no change with or without drug | -0.67 | -1.18 | 0.22 | inactive |

Look-ups from the entries so far.
Entry of Tesk2 (testis-specific kinase 2) in “viability z-score without drug”: -1.18
Value of Kcnh3 under “z-score of drug to no-drug ratio”: 0.22
Result for Gmfb (glia maturation factor, beta) under “Outcome”: inactive
For “Outcome”, Eml3 (echinoderm microtubule associated protein like 3) reads inactive
Entry for Ank (progressive ankylosis) in “combined z-score class”: no change with or without drug
Result for Fcgrt (Fc fragment of IgG receptor and transporter) under “combined z-score class”: no change with or without drug

Continued.
| gene | pool no. | combined z-score class | viability z-score with doxorubicin | viability z-score without drug | z-score of drug to no-drug ratio | Outcome |
| --- | --- | --- | --- | --- | --- | --- |
| Tnfaip6 (tumor necrosis factor alpha induced protein 6) | 1 | no change with or without drug | -0.67 | 0.34 | -0.79 | inactive |
| Txnl4a (thioredoxin-like 4A) | 1 | no change with or without drug | 1.12 | -0.84 | 2.02 | inactive |
| Txnl4a (thioredoxin-like 4A) | 2 | no change with or without drug | -0.22 | 0.17 | -0.22 | inactive |
| Vav3 (vav guanine nucleotide exchange factor 3) | 1 | no change with or without drug | -0.45 | -0.84 | 0.22 | inactive |
| H2-M10.3 (histocompatibility 2, M region locus 10.3) | 1 | no change with or without drug | 0.11 | 0.34 | 0 | inactive |
| Leprot (leptin receptor overlapping transcript) | 1 | no change with or without drug | 0.56 | 0.34 | 0.45 | inactive |
| Gpr143 (G protein-coupled receptor 143) | 1 | high cell count without drug only | -0.56 | 2.87 | -2.14 | inactive |
| Lingo4 (leucine rich repeat and Ig domain containing 4) | 1 | no change with or without drug | 0 | -0.51 | 0.45 | inactive |
| Polr2m (polymerase (RNA) II (DNA directed) polypeptide M) | 1 | no change with or without drug | 0.11 | -0.51 | 0.56 | inactive |
| Ptprf (protein tyrosine phosphatase receptor type F) | 1 | no change with or without drug | 1.8 | 0.34 | 1.69 | inactive |
| Tnpo1 (transportin 1) | 1 | no change with or without drug | 0.22 | 0.67 | -0.11 | inactive |
| Tmem39a (transmembrane protein 39a) | 1 | low cell count with doxorubicin only | -2.02 | -0.17 | -1.91 | active |
| Timmdc1 | 1 | no change with or without drug | 0.9 | 1.85 | -0.22 | inactive |
| Fndc3b (fibronectin type III domain containing 3B) | 1 | no change with or without drug | 1.8 | 1.18 | 1.12 | inactive |
| Haus3 (HAUS augmin-like complex, subunit 3) | 1 | no change with or without drug | -0.22 | 0.84 | -0.67 | inactive |
| Pla2g2a (phospholipase A2, group IIA (platelets, synovial fluid)) | 1 | no change with or without drug | 0.79 | 0.17 | 0.79 | inactive |
| Skp1 (S-phase kinase-associated protein 1) | 1 | no change with or without drug | 0.34 | -0.84 | 1.12 | inactive |
| Tmco5a (transmembrane and coiled-coil domains 5A) | 1 | no change with or without drug | -0.45 | 0.84 | -0.9 | inactive |
| Fadd (Fas associated via death domain) | 1 | no change with or without drug | -0.56 | 0.67 | -0.9 | inactive |
| Cwf19l2 (CWF19 like cell cycle control factor 2) | 1 | no change with or without drug | 0.45 | -0.17 | 0.67 | inactive |
| Mutyh (mutY DNA glycosylase) | 1 | high cell count with doxorubicin only | 2.14 | 0.84 | 1.69 | inactive |
| Taf9 (TATA-box binding protein associated factor 9) | 1 | no change with or without drug | 0.22 | 0.67 | -0.11 | inactive |
| Taf9 (TATA-box binding protein associated factor 9) | 2 | no change with or without drug | -1.12 | -1.01 | -0.45 | inactive |
| Mgl2 | 1 | no change with or without drug | -0.22 | -0.67 | 0.34 | inactive |
| Gemin6 (gem nuclear organelle associated protein 6) | 1 | no change with or without drug | 0.22 | 1.18 | -0.45 | inactive |
| Crisp2 (cysteine-rich secretory protein 2) | 1 | no change with or without drug | 0.45 | 1.85 | -0.67 | inactive |
| Gabre (gamma-aminobutyric acid (GABA) A receptor, subunit epsilon) | 1 | no change with or without drug | 1.12 | 0.84 | 0.67 | inactive |
| Arhgap29 (Rho GTPase activating protein 29) | 1 | low cell count with doxorubicin only | -2.02 | -0.17 | -1.91 | active |
| Coq10b (coenzyme Q10B) | 1 | no change with or without drug | 0.67 | -0.17 | 0.9 | inactive |
| Vmn2r-ps11 (vomeronasal 2, receptor, pseudogene 11) | 1 | no change with or without drug | -0.45 | 1.52 | -1.24 | inactive |
| Tmem74b (transmembrane protein 74B) | 1 | no change with or without drug | -1.12 | 0.51 | -1.35 | inactive |
